Some of the results follow. Hit calls seldom repeat between salt and free forms of one compound.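 Kinases were expressed as nanoluciferase fusions in K562 cells and luminescence was read every 4 h between 2 and 18 h as percent of control, DMSO set to 100% and a positive control to 0%. A time point counts as decreased when the signal drops significantly (2 sigma). The hit call is the authors' own, does not follow from the count of time points alone, and its rule is not shown.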
Experiments:
Experiment in all cases: kinase-Nluc reporter destabilization hit call (1 = scored as downregulated) (binary); higher = compound decreases kinase abundance
Conditions in all cases: K562; 2-18 h
EGFR = EGFR (UniProt P00533)
EGFR_G719S = EGFR_G719S (UniProt P00533)
EGFR_G719S_T790M = EGFR_G719S_T790M (UniProt P00533)
EGFR_L718V = EGFR_L718V (UniProt P00533)
EGFR_L858R = EGFR_L858R (UniProt P00533)
EGFR_L861Q = EGFR_L861Q (UniProt P00533)
EGFR_T790M = EGFR_T790M (UniProt P00533)
EPHA2 = EPHA2 (UniProt P29317)
ERBB3 = ERBB3 (UniProt P21860)
[1] = molecular target: ERBB4_R711C (clone: ERBB4_mut) (UniProt Q15303)
ERN1 = ERN1 (UniProt O75460)
FGFR1 = FGFR1 (UniProt P11362)
FGFR2 = FGFR2 (UniProt P21802)
FGFR3 = FGFR3 (UniProt P22607)
FGR = FGR (UniProt P09769)
FLT3 = FLT3 (UniProt P36888)
FYN = FYN (UniProt P06241)
GSK3A = GSK3A (UniProt P49840)
HER2 = HER2 (UniProt P04626)
INSRR = INSRR (UniProt P14616)

Sequences of proteins named here, by UniProt entry; tags and fusion partners are left off. A change or cut given only in a name is not applied to a line headed by its entry.
UniProt P21860, whole entry: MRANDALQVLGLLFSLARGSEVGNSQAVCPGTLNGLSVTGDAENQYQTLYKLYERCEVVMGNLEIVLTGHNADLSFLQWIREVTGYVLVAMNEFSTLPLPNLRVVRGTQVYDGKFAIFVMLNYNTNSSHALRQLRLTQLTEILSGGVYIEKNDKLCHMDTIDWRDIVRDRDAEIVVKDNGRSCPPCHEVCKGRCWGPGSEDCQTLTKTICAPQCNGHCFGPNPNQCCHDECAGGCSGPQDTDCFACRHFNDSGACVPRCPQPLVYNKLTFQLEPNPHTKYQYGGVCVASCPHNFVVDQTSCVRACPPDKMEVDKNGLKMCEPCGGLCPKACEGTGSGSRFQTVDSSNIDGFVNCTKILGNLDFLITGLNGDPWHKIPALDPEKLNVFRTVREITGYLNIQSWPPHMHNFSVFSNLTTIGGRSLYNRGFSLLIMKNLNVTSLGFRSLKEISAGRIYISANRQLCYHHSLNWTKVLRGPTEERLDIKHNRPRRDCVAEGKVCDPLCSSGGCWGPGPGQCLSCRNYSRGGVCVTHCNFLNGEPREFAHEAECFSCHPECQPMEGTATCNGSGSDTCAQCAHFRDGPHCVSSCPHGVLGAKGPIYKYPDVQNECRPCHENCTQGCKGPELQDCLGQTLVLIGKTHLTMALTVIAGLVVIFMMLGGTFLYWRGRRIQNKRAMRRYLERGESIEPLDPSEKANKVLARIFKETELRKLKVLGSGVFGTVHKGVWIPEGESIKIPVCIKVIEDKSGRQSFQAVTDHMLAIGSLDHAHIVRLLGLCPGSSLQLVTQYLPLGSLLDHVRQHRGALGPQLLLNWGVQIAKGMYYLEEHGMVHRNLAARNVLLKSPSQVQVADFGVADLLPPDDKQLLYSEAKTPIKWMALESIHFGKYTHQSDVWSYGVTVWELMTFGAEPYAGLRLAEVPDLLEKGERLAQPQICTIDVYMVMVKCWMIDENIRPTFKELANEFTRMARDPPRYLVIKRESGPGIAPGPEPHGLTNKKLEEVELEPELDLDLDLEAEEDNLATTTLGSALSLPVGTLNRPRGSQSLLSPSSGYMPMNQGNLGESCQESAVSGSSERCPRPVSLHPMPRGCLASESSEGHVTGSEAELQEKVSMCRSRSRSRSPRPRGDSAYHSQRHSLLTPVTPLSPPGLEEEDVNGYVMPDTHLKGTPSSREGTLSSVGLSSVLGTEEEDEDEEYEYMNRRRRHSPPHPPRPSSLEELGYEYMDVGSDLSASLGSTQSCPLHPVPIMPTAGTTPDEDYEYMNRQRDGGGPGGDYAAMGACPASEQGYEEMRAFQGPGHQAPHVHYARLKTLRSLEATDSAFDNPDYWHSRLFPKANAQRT
UniProt Q15303, whole entry R711C: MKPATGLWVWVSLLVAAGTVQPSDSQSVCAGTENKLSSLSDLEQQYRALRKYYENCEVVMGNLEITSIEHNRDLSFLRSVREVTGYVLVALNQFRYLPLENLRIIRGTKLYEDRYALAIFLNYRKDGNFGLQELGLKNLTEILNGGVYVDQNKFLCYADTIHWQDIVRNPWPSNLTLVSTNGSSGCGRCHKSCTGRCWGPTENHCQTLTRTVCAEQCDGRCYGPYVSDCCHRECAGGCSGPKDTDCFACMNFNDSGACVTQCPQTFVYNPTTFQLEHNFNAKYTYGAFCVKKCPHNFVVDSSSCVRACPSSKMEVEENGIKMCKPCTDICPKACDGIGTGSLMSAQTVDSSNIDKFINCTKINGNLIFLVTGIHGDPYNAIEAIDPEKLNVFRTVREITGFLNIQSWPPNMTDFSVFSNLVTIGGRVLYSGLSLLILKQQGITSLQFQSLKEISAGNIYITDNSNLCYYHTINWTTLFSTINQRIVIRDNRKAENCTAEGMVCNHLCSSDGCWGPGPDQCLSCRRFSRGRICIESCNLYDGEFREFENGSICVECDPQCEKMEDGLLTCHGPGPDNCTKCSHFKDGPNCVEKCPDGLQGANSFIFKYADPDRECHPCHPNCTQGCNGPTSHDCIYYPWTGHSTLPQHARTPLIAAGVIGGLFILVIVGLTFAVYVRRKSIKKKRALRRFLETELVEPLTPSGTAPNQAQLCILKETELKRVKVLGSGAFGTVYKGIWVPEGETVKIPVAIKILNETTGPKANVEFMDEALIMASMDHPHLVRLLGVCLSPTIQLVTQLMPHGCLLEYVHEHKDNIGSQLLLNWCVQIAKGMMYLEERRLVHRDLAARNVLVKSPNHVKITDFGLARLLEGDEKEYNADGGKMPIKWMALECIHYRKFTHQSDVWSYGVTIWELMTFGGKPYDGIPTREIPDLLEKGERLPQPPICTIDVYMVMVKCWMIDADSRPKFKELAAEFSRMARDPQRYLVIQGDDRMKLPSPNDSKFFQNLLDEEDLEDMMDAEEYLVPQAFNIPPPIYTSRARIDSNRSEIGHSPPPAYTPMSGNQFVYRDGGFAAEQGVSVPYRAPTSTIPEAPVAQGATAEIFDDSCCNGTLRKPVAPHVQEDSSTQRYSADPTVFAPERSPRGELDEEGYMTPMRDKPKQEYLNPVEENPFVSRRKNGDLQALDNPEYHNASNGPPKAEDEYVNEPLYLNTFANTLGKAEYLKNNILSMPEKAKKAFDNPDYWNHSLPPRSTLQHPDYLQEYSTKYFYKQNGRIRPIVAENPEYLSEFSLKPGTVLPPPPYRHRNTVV
UniProt P11362, whole entry, looked up: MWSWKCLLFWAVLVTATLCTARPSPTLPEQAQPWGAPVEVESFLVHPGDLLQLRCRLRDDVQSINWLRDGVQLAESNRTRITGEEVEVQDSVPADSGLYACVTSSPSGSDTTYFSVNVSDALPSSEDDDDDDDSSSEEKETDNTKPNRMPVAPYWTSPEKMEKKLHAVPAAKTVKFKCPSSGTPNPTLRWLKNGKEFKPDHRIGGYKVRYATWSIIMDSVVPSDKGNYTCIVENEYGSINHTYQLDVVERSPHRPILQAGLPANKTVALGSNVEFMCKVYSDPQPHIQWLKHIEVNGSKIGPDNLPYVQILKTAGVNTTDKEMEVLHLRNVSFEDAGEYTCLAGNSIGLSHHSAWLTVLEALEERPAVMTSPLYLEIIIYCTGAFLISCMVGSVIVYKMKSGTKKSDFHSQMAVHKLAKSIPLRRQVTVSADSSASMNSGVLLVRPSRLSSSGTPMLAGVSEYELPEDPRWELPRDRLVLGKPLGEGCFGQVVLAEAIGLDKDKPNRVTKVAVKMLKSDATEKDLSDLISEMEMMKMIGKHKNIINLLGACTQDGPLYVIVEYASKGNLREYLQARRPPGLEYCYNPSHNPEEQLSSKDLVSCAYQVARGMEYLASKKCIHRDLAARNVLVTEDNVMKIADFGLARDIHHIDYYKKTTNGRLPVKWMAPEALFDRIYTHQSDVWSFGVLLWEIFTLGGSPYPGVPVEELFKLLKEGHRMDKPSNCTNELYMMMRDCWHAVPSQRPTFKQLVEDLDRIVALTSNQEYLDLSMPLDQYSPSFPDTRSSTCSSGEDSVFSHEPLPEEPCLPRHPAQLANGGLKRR
UniProt P36888, whole entry: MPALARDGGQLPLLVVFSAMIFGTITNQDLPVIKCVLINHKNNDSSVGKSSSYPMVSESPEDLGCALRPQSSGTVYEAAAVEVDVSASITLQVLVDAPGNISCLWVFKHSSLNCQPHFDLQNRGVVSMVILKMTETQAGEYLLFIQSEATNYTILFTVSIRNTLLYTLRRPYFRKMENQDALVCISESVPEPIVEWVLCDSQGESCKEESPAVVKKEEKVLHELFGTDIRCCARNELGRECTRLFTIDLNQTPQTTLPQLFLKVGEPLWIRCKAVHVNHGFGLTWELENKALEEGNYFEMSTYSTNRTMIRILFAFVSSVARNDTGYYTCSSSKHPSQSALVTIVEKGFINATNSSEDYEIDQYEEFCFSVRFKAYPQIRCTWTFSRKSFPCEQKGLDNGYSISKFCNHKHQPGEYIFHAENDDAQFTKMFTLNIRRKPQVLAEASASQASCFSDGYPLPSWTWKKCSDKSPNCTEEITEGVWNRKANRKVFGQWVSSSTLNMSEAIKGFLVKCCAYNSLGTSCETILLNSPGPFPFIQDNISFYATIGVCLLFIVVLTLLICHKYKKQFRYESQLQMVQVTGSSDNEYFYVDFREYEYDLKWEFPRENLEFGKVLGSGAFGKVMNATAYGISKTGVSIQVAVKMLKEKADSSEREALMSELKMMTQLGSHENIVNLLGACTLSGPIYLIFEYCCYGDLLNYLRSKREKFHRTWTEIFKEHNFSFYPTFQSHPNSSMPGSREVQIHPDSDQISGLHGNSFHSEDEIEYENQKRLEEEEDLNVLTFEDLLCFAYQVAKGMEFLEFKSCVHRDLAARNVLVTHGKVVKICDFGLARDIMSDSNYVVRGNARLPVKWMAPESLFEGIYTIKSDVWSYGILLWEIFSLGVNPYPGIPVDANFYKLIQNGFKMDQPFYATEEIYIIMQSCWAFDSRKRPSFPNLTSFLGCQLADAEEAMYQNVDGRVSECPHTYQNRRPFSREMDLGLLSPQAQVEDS
UniProt P49840: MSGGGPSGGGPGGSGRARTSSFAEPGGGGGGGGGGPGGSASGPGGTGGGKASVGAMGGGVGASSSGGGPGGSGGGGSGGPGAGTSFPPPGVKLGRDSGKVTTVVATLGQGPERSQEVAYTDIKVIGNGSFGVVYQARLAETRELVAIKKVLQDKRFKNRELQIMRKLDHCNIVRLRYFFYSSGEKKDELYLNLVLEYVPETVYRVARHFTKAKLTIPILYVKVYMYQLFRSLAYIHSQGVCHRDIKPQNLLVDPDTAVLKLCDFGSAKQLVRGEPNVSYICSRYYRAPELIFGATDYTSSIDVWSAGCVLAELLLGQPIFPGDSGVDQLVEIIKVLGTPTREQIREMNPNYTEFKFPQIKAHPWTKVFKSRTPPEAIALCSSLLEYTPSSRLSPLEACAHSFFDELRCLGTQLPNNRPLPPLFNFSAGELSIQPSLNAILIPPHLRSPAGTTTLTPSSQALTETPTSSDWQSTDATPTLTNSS
UniProt P14616: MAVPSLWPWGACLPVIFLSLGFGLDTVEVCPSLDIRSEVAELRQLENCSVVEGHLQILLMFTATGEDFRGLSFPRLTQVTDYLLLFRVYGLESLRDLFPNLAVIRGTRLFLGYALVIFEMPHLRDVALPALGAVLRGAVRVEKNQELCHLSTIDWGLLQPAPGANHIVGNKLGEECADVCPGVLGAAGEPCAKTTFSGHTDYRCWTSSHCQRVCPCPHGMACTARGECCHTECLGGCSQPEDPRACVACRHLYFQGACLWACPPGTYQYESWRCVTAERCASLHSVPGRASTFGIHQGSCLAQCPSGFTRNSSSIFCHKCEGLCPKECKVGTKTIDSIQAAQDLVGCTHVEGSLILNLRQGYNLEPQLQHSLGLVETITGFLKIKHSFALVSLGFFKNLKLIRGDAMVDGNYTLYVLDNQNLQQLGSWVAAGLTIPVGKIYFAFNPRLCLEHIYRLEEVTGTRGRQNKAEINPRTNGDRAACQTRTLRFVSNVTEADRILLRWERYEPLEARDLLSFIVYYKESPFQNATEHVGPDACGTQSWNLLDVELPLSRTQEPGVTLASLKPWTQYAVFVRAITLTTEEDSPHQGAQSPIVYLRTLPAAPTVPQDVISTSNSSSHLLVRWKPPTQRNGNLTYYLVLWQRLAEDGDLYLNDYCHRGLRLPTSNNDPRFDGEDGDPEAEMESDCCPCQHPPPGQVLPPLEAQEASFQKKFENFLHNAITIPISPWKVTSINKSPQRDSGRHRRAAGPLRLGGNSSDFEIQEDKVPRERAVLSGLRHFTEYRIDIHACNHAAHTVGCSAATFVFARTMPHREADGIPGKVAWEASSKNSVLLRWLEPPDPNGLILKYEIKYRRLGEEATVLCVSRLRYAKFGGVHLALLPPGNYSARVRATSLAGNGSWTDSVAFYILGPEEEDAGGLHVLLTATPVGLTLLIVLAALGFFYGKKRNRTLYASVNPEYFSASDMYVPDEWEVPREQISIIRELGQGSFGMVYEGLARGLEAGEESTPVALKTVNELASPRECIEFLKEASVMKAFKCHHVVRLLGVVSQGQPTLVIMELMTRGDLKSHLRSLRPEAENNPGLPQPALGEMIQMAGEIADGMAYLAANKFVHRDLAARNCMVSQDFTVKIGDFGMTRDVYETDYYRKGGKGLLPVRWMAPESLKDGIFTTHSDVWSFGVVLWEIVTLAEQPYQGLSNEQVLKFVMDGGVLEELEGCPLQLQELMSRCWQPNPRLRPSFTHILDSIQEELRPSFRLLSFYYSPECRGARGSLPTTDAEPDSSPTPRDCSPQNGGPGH

Row | Compound | kinase-Nluc reporter destabilization hit call (EGFR) | kinase-Nluc reporter destabilization hit call (EGFR_G719S) | kinase-Nluc reporter destabilization hit call (EGFR_G719S_T790M) | kinase-Nluc reporter destabilization hit call (EGFR_L718V) | kinase-Nluc reporter destabilization hit call (EGFR_L858R) | kinase-Nluc reporter destabilization hit call (EGFR_L861Q) | kinase-Nluc reporter destabilization hit call (EGFR_T790M) | kinase-Nluc reporter destabilization hit call (EPHA2) | kinase-Nluc reporter destabilization hit call (ERBB3) | kinase-Nluc reporter destabilization hit call [1] | kinase-Nluc reporter destabilization hit call (ERN1) | kinase-Nluc reporter destabilization hit call (FGFR1) | kinase-Nluc reporter destabilization hit call (FGFR2) | kinase-Nluc reporter destabilization hit call (FGFR3) | kinase-Nluc reporter destabilization hit call (FGR) | kinase-Nluc reporter destabilization hit call (FLT3) | kinase-Nluc reporter destabilization hit call (FYN) | kinase-Nluc reporter destabilization hit call (GSK3A) | kinase-Nluc reporter destabilization hit call (HER2) | kinase-Nluc reporter destabilization hit call (INSRR)
1 | O=C(Nc1cccc(Nc2ncc(Br)c(NCCc3cnc[nH]3)n2)c1)N1CCCC1 (10 µM) | inactive: 0 | inactive: 0 | inactive: 0 | inactive: 0 | inactive: 0 | inactive: 0 | inactive: 0 | inactive: 0 | inactive: 0 | inactive: 0 | inactive: 0 | inactive: 0 | inactive: 0 | inactive: 0 | inactive: 0 | inactive: 0 | inactive: 0 | inactive: 0 | inactive: 0 | inactive: 0
2 | COc1cc2ncnc(Nc3ccc(F)c(Cl)c3)c2cc1NC(=O)/C=C/CN1CCCCC1 [Dacomitinib] (10 µM) | inactive: 0 | inactive: 0 | inactive: 0 | inactive: 0 | inactive: 0 | inactive: 0 | inactive: 0 | inactive: 0 | inactive: 0 | inactive: 0 | inactive: 0 | inactive: 0 | inactive: 0 | inactive: 0 | inactive: 0 | inactive: 0 | inactive: 0 | inactive: 0 | active: 1 | inactive: 0
3 | c1ccc(-c2nc3c(c(-n4ccc5cnccc54)n2)CCC3)nc1 (10 µM) | inactive: 0 | inactive: 0 | inactive: 0 | inactive: 0 | inactive: 0 | inactive: 0 | inactive: 0 | inactive: 0 | inactive: 0 | inactive: 0 | inactive: 0 | inactive: 0 | inactive: 0 | inactive: 0 | inactive: 0 | inactive: 0 | inactive: 0 | inactive: 0 | inactive: 0 | inactive: 0
4 | CN1CCC(c2ccccc2CC(C)(C)Nc2nc(N3CCOCC3)nc(-n3c(C(F)F)nc4ccccc43)n2)CC1 [Zandelisib] (10 µM) | inactive: 0 | inactive: 0 | inactive: 0 | inactive: 0 | inactive: 0 | inactive: 0 | inactive: 0 | inactive: 0 | inactive: 0 | inactive: 0 | inactive: 0 | inactive: 0 | inactive: 0 | inactive: 0 | inactive: 0 | inactive: 0 | inactive: 0 | inactive: 0 | inactive: 0 | inactive: 0
5 | Nc1ncnc2c1c(COc1cccc(Cl)c1)nn2C1CCOCC1 (10 µM) | inactive: 0 | inactive: 0 | inactive: 0 | inactive: 0 | inactive: 0 | inactive: 0 | inactive: 0 | inactive: 0 | inactive: 0 | inactive: 0 | inactive: 0 | inactive: 0 | inactive: 0 | inactive: 0 | inactive: 0 | inactive: 0 | inactive: 0 | inactive: 0 | inactive: 0 | inactive: 0
6 | COc1ccc(S(=O)(=O)NCc2ccc(C(=O)NCCc3ccc(Cl)cn3)cc2)cc1 (10 µM) | inactive: 0 | inactive: 0 | inactive: 0 | inactive: 0 | inactive: 0 | inactive: 0 | inactive: 0 | inactive: 0 | inactive: 0 | inactive: 0 | inactive: 0 | inactive: 0 | inactive: 0 | inactive: 0 | inactive: 0 | inactive: 0 | inactive: 0 | inactive: 0 | inactive: 0 | inactive: 0
7 | N#Cc1c2nc3ccccc3nc2n2ccc(NC(=O)c3cccs3)cc12 (10 µM) | inactive: 0 | inactive: 0 | inactive: 0 | inactive: 0 | inactive: 0 | inactive: 0 | inactive: 0 | inactive: 0 | inactive: 0 | inactive: 0 | inactive: 0 | inactive: 0 | inactive: 0 | inactive: 0 | inactive: 0 | inactive: 0 | inactive: 0 | inactive: 0 | inactive: 0 | inactive: 0
8 | Cc1ccn2c(C(=O)C(=O)c3ccccc3)c(-c3ccccc3)nc2c1 (10 µM) | inactive: 0 | inactive: 0 | inactive: 0 | inactive: 0 | inactive: 0 | inactive: 0 | inactive: 0 | inactive: 0 | inactive: 0 | inactive: 0 | inactive: 0 | inactive: 0 | inactive: 0 | inactive: 0 | inactive: 0 | inactive: 0 | inactive: 0 | inactive: 0 | inactive: 0 | inactive: 0
9 | COc1ccc(/C=C/C(=O)C2(C(=O)/C=C/c3ccc(OC)c(OC)c3)CCCCC2)cc1OC (2.5 µM) | inactive: 0 | inactive: 0 | inactive: 0 | inactive: 0 | inactive: 0 | inactive: 0 | inactive: 0 | inactive: 0 | inactive: 0 | inactive: 0 | inactive: 0 | inactive: 0 | inactive: 0 | inactive: 0 | inactive: 0 | inactive: 0 | inactive: 0 | inactive: 0 | inactive: 0 | inactive: 0
10 | Cc1cc(Nc2nc(CC3(C(=O)O)CCN(C(=O)c4cccc(Cl)c4Cl)CC3)ccc2F)n[nH]1 (10 µM) | inactive: 0 | inactive: 0 | inactive: 0 | inactive: 0 | inactive: 0 | inactive: 0 | inactive: 0 | inactive: 0 | inactive: 0 | inactive: 0 | inactive: 0 | inactive: 0 | inactive: 0 | inactive: 0 | inactive: 0 | inactive: 0 | inactive: 0 | inactive: 0 | inactive: 0 | inactive: 0
11 | Nc1c(C(=O)NCc2ccc(C(=O)NCCCC3CCCCC3)cc2)cnn1-c1ccccc1 (2.5 µM) | inactive: 0 | inactive: 0 | inactive: 0 | inactive: 0 | inactive: 0 | inactive: 0 | inactive: 0 | inactive: 0 | inactive: 0 | inactive: 0 | inactive: 0 | inactive: 0 | inactive: 0 | inactive: 0 | inactive: 0 | inactive: 0 | inactive: 0 | inactive: 0 | inactive: 0 | inactive: 0
12 | COc1ccc(-c2c(C)nn3c(NCCN4CCOCC4)cc(C)nc23)cc1OC (10 µM) | inactive: 0 | inactive: 0 | inactive: 0 | inactive: 0 | inactive: 0 | inactive: 0 | inactive: 0 | inactive: 0 | inactive: 0 | inactive: 0 | inactive: 0 | inactive: 0 | inactive: 0 | inactive: 0 | inactive: 0 | inactive: 0 | inactive: 0 | inactive: 0 | inactive: 0 | inactive: 0
13 | COc1cc(N2CCOCC2)ccc1NC(=O)c1csc(-c2cccnc2)n1 [IRAK inhibitor 6] (10 µM) | inactive: 0 | inactive: 0 | inactive: 0 | inactive: 0 | inactive: 0 | inactive: 0 | inactive: 0 | inactive: 0 | inactive: 0 | inactive: 0 | inactive: 0 | inactive: 0 | inactive: 0 | inactive: 0 | inactive: 0 | inactive: 0 | inactive: 0 | inactive: 0 | inactive: 0 | inactive: 0
14 | Cc1ccc(-c2csc3ncnc(SCCC(=O)O)c23)cc1 (10 µM) | inactive: 0 | inactive: 0 | inactive: 0 | inactive: 0 | inactive: 0 | inactive: 0 | inactive: 0 | inactive: 0 | inactive: 0 | inactive: 0 | inactive: 0 | inactive: 0 | inactive: 0 | inactive: 0 | inactive: 0 | inactive: 0 | inactive: 0 | inactive: 0 | inactive: 0 | inactive: 0
15 | Cc1cc(Nc2ncnc3ccc(-c4ccc(CNCCS(C)(=O)=O)o4)cc23)ccc1Oc1ccn2ncnc2c1 [ARRY-380 (analog )] (2.5 µM) | inactive: 0 | inactive: 0 | inactive: 0 | inactive: 0 | inactive: 0 | inactive: 0 | inactive: 0 | inactive: 0 | inactive: 0 | inactive: 0 | inactive: 0 | inactive: 0 | inactive: 0 | inactive: 0 | inactive: 0 | inactive: 0 | inactive: 0 | inactive: 0 | inactive: 0 | inactive: 0

Nos. 13–14, quoted:
Row | Compound | kinase-Nluc reporter destabilization hit call (EGFR) | kinase-Nluc reporter destabilization hit call (EGFR_G719S) | kinase-Nluc reporter destabilization hit call (EGFR_G719S_T790M) | kinase-Nluc reporter destabilization hit call (EGFR_L718V) | kinase-Nluc reporter destabilization hit call (EGFR_L858R) | kinase-Nluc reporter destabilization hit call (EGFR_L861Q) | kinase-Nluc reporter destabilization hit call (EGFR_T790M) | kinase-Nluc reporter destabilization hit call (EPHA2) | kinase-Nluc reporter destabilization hit call (ERBB3) | kinase-Nluc reporter destabilization hit call [1] | kinase-Nluc reporter destabilization hit call (ERN1) | kinase-Nluc reporter destabilization hit call (FGFR1) | kinase-Nluc reporter destabilization hit call (FGFR2) | kinase-Nluc reporter destabilization hit call (FGFR3) | kinase-Nluc reporter destabilization hit call (FGR) | kinase-Nluc reporter destabilization hit call (FLT3) | kinase-Nluc reporter destabilization hit call (FYN) | kinase-Nluc reporter destabilization hit call (GSK3A) | kinase-Nluc reporter destabilization hit call (HER2) | kinase-Nluc reporter destabilization hit call (INSRR)
13 | COc1cc(N2CCOCC2)ccc1NC(=O)c1csc(-c2cccnc2)n1 [IRAK inhibitor 6] (10 µM) | inactive: 0 | inactive: 0 | inactive: 0 | inactive: 0 | inactive: 0 | inactive: 0 | inactive: 0 | inactive: 0 | inactive: 0 | inactive: 0 | inactive: 0 | inactive: 0 | inactive: 0 | inactive: 0 | inactive: 0 | inactive: 0 | inactive: 0 | inactive: 0 | inactive: 0 | inactive: 0
14 | Cc1ccc(-c2csc3ncnc(SCCC(=O)O)c23)cc1 (10 µM) | inactive: 0 | inactive: 0 | inactive: 0 | inactive: 0 | inactive: 0 | inactive: 0 | inactive: 0 | inactive: 0 | inactive: 0 | inactive: 0 | inactive: 0 | inactive: 0 | inactive: 0 | inactive: 0 | inactive: 0 | inactive: 0 | inactive: 0 | inactive: 0 | inactive: 0 | inactive: 0

Source: the supplement of paper PMC12823440, “Inhibitors supercharge kinase turnover through native proteolytic circuits” (Nature, 2025)
